Measurements reported in PubChem BioAssay AID743454 (Peter MacCallum Cancer Centre, 2014).
Test: 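Search for knock-downs that restore vorinostat killing in resistant colon cancer cells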 (primary screen). System: human HCT116-VR colon cancer cells, selected for vorinostat resistance. Knock-down reagent: siRNA pool against human genes, 40 nM siRNA pool. Time to read-out: vorinostat for 24 h, read-out about 72 h after transfection. Treatment: vorinostat at 2.5 µM final. Read-out: 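Cell viability by CellTiter-Fluor and caspase 3/7 activity by luminescence, each scaled to mock wells per plate, duplicates averaged, then robust z-scored over all plates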. Direction: viability robust z-score: higher = more viable cells than screen typical; caspase robust z-score: higher = more caspase 3/7 activity than screen typical. Active means: 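Hits are knock-downs in viability class RV1/RV2 or caspase class CA1/CA2, excluding ones that killed cells in the no-drug cell-count arm; hits then retested with single siRNAs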.
This is a random part of about 18,000 reagents tested. Over the whole deposit, 450 (2.5%) are marked active. 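Single biological run; no consistent viability z cut-off exists, so the class columns, not z-scores, define the calls.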 Unmarked entries are inactive. Reagents against one gene are numbered here.

| gene | reagent no. | viability hit class | caspase hit class | viability robust z-score | caspase robust z-score |
| --- | --- | --- | --- | --- | --- |
| NUDT2 (GeneID 318) | 1 | no change | no change | -0.38 | 1.63 |
| H4C5 (GeneID 8367) | 1 | no change | no change | 1.32 | -0.64 |
| ERMARD (GeneID 55780) | 1 | no change | no change | 1.77 | 0.38 |
| SDR9C7 (GeneID 121214) | 1 | no change | no change | -0.24 | -0.08 |
| ERCC6L2 (GeneID 375748) | 1 | no change | no change | 0.59 | -0.57 |
| ERCC6L2 (GeneID 375748) | 2 | no change | no change | -0.24 | 0.2 |
| CEACAM18 (GeneID 729767) | 1 | no change | no change | -0.09 | -0.14 |
| SDHA (GeneID 6389) | 1 | no change | no change | -0.16 | -0.09 |
| SEPTIN6 (GeneID 23157) | 1 | no change | no change | -0.76 | 1.15 |
| POU4F1 (GeneID 5457) | 1 | no change | no change | 0.31 | 1.55 |
| RDH14 (GeneID 57665) | 1 | no change | no change | -1.3 | 0.66 |
| C1orf174 (GeneID 339448) | 1 | no change | no change | -0.07 | 0.1 |
| SYT4 (GeneID 6860) | 1 | no change | no change | -1.04 | -0.34 |
| EYA3 (GeneID 2140) | 1 | no change | no change | -2.54 | -0.76 |
| NUP155 (GeneID 9631) | 1 | no change | no change | -0.12 | 1.02 |
| LYRM9 (GeneID 201229) | 1 | no change | no change | -1.44 | 1.93 |
| PSMA3 (GeneID 5684) | 1 | no change | no change | -4.08 | 3.83 |
| MAGOH (GeneID 4116) | 1 | RV2 (reduced viability) (active) | no change | -3.63 | 2.62 |
| NME6 (GeneID 10201) | 1 | no change | no change | -1.4 | 1.76 |
| MTHFD1L (GeneID 25902) | 1 | no change | no change | 1.59 | -0.24 |
| FBLN7 (GeneID 129804) | 1 | no change | no change | -0.44 | 0.45 |
| ARSH (GeneID 347527) | 1 | no change | no change | 0.24 | -0.14 |
| ZFP36L2 (GeneID 678) | 1 | no change | no change | -0.19 | 1.6 |
